Sequences of proteins named here, by UniProt entry; tags and fusion partners are left off.
UniProt Q5S007: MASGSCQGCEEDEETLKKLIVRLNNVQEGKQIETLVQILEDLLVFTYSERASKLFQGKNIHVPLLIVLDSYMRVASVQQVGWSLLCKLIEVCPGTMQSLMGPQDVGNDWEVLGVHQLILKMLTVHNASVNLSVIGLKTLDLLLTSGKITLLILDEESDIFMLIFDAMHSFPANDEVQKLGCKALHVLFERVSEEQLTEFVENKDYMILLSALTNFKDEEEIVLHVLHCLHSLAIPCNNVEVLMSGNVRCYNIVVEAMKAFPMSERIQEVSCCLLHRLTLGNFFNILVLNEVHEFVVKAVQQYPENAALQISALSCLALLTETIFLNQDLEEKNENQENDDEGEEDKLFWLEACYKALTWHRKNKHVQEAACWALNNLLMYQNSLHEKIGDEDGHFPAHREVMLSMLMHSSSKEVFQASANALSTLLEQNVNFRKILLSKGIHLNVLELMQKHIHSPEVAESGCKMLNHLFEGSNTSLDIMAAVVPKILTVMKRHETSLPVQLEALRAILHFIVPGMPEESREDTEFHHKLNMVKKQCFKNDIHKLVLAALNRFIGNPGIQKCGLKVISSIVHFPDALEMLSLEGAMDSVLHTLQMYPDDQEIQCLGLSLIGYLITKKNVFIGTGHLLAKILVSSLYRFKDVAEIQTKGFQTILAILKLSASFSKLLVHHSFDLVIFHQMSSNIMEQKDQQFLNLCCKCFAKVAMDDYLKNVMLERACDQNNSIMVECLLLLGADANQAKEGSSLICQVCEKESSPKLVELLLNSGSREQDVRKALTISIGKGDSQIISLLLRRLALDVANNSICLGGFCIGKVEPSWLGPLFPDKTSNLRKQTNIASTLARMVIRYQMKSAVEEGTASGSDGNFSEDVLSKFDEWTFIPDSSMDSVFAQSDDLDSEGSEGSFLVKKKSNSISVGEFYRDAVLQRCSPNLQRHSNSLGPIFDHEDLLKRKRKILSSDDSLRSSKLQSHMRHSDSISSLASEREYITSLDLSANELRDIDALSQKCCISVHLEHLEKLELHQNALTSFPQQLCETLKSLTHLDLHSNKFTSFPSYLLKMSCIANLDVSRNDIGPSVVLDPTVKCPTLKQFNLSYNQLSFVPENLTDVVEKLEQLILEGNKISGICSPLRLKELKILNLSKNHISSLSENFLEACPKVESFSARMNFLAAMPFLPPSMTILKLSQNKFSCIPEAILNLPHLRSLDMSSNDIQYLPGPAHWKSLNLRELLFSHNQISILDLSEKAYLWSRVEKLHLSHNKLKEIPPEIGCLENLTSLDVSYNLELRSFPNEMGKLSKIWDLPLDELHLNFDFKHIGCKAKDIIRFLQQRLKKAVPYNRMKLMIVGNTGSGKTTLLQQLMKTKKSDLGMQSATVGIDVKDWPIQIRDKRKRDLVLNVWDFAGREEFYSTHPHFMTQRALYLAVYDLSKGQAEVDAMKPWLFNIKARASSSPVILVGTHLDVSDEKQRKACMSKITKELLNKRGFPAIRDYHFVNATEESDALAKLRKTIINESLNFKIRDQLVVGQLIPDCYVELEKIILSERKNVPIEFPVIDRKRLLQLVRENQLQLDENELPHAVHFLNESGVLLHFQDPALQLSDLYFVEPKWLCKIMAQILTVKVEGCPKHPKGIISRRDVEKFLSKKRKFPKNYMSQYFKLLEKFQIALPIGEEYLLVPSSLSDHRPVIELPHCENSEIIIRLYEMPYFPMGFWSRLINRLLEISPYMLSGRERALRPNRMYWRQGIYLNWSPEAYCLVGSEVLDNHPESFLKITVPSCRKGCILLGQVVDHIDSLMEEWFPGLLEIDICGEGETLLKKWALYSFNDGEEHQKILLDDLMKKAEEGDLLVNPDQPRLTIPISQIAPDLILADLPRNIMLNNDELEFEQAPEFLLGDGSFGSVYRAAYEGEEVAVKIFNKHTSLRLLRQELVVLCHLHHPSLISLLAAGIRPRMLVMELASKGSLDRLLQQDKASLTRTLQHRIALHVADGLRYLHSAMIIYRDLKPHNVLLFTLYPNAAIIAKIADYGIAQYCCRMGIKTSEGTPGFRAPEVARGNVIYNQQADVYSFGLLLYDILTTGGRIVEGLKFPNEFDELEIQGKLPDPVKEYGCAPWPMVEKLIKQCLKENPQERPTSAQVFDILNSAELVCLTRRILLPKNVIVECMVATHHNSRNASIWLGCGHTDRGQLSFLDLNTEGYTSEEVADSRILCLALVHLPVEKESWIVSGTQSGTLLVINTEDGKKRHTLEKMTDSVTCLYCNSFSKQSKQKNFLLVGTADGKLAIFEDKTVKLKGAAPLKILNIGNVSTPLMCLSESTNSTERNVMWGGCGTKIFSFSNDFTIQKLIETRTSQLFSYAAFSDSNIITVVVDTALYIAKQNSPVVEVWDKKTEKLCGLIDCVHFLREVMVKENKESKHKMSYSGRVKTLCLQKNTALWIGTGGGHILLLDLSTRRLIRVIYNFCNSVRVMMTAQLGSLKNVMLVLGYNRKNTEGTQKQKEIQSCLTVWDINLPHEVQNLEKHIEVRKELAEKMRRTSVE
UniProt Q96JN8: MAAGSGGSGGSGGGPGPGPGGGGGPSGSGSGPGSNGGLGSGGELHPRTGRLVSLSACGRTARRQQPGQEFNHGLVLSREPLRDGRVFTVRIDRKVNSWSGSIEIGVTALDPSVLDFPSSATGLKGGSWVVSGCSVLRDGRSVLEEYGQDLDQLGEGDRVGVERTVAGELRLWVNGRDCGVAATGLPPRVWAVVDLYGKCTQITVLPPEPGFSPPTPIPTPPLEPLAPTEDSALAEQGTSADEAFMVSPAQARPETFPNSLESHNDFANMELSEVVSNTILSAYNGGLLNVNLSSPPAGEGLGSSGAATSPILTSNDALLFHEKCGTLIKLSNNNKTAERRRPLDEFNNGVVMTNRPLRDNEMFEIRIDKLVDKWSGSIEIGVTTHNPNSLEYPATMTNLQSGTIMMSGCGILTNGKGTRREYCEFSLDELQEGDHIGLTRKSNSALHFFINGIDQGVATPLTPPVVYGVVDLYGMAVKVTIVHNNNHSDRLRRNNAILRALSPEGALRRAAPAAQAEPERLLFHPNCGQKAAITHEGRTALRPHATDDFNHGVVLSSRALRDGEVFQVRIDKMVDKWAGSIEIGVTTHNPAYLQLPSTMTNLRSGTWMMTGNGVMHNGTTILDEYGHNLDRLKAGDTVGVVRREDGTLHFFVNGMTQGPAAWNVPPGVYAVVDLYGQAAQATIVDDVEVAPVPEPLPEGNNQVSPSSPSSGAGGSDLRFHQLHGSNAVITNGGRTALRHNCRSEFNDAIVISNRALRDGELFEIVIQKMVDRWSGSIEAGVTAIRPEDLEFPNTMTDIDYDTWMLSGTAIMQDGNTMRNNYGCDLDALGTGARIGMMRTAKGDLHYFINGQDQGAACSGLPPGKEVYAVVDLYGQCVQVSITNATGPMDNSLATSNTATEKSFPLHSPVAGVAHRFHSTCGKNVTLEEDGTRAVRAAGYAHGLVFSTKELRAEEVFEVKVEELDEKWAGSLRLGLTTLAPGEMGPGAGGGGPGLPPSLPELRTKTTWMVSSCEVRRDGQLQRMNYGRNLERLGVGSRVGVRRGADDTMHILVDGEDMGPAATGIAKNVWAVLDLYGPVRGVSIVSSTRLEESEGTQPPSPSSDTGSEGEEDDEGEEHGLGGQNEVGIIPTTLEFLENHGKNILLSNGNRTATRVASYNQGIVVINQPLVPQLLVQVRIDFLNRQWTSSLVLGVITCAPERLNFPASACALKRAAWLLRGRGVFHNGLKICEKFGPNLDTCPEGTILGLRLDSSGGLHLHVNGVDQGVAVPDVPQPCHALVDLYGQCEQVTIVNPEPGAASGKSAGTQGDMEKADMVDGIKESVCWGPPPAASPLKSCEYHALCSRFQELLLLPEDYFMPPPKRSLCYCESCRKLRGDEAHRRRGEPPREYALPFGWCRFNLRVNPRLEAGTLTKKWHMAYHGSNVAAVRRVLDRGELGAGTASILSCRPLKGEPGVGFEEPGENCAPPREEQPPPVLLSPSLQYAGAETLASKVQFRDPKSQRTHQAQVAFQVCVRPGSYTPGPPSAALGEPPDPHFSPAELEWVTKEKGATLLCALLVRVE

According to article PMC4565672:

Molecular target: FLAG-tagged human LRRK2 (wild type) (human) (UniProt Q5S007)
Test: affinity purification with mass spectrometry; Flp-In 293 cells stably expressing FLAG-LRRK2; lysis buffer 50 mM Tris pH 7.4, 120 mM NaCl, 5 mM EDTA, 10% glycerol, 1% Triton X-100; anti-FLAG M2 affinity gel, eluted with 3x FLAG peptide; silver-stained bands identified by HPLC-MS/MS

binding: binds
Substance: NEURL4 (endogenous, HEK293 cells) (from UniProt Q96JN8 1-1562)

These are yes or no findings as the source states them, for the method shown. Binding seen in cells or lysates may run through a third protein. Here binding means that the protein was enriched with, or labelled near, the bait; the list need not be complete.
